Assay results reported in patent US4426453A, “Derivatives of iodothyronine compounds and their use in an assay for the free iodothyronine compounds” (Amersham International Limited, priority 1980, dated 1984).

Tests used:
[1] = Independence of measured free-T4 concentration from serum dilution with the tracer; set-up: species or system human; settings: qualitative; 125I-labelled derivative as tracer
[2] = Binding to polystyrene assay tubes; settings: qualitative

Row | SMILES | free-T4 concentration unaffected by dilution of serum sample [1] | binding to assay tubes [2]
1 | COC(=O)[C@H](Cc1cc(I)c(Oc2cc(I)c(O)c(I)c2)c(I)c1)NC(C)=O [N-Acetyl-thyroxine-methyl ester, N-acetyl-thyroxine-methyl ester, reference compound] | only approximately true | –
2 | O=C(O)CN(CCN(CC(=O)O)CC(=O)NC(Cc1cc(I)c(Oc2cc(I)c(O)c(I)c2)c(I)c1)C(=O)O)CC(=O)O (stereo not drawn) [T4.EDTA, 1-{3',5'-di-iodo-4'(3",5"-di-iodo-4"-Hydroxyphenoxy)phenyl}2-carboxy-6,9-dicarboxymethyl-4-oxo-3,6,9-triazaundecan-11-oic acid] | much more accurately true | shows no significant tendency to bind to assay tubes
